Experimental data as given in patent US20130095097A1.
These are yes or no findings as the source states them, for the method shown. Some entries that bind do so weakly or less than the wild type.

By UniProt entry, the sequences of proteins in these tests, tags left out. Residues count along the entry.
UniProt P10747, residues 19-220: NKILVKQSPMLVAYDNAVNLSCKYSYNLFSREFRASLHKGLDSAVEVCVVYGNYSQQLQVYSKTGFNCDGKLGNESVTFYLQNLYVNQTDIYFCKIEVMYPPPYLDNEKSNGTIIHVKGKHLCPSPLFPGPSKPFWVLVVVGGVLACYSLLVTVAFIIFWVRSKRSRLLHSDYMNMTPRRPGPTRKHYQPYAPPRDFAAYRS

Target: CD28 on Jurkat T cells (UniProt P10747)
Assay: flow cytometry on Jurkat cells; the bivalent comparator bound more strongly than the Interceptors

binding: binds
B1: 2E12 monoclonal antibody (mAb) (antibody, V domains shown)
VH: QVQLKESGPGSVAPSQSLSITCTVSGFSLTGYGVNWVRQPPGKGLEWLGMIWGDGSTDYNSALKSRLSITKDNSKSQVFLKMNSLQTDDTARYYCARDGYSNFHYYVMDYWGQGTSVTVSS
VL: DIVLTQSPASLAVSLGQRATISCRASESVEYYVTSLMQWYQQKPGQPPKLLISAASNVESGVPARFSGSGSGTDFSLNIHPVEEDDIAMYFCQQSRKVPWTFGGGTKLEIK
